The assay relates to lysates of human umbilical vein endothelial cells (HUVECs). The assay is described as follows: kinome activity profiling (PamGene) of treated cell lysate. The format is biochemical. The conditions noted are these: 1 µM, HUVEC lysate, 10% DMSO. The method, then: By using the PamGene technology, kinase activities are studied via the phosphorylation degree of over 144 substrate peptides fixed in arrays. […] As described above, 10% DMSO as co-solvent was also necessary in this assay to avoid compound precipitation of the micromolar compound solution.
Human Umbilical Vein Endothelial Cells (HUVECs) were obtained from PromoCell (Heidelberg, Germany) and cultivated with ECGM2 (PromoCell) at 37 °C and 5% CO2 in humidified atmosphere. For kinome profiling, HUVECs were seeded in cell culture flasks (25 cm^2) to 90% confluence. After cell lysis with M-Per and centrifugation at 4 °C, cell lysates were immediately stored at −80 °C [14]. Protein concentration was determined with Bradford assay (ThermoFisher, Waltham, MA, USA). Samples for profiling were prepared according to manufacturer’s protocol. For kinome profiling, PamStation® 12 was used (PamGene, ’s-Hertogenbosch, Netherlands). Protein tyrosine kinase PamChips® were used with a total of 5 µg protein and 100 µM ATP per array. The microchip for kinome profiling contains 144 peptides linked to a porous surface. These peptides can be phosphorylated by cell lysate kinases. Readout was achieved by washing microchips with fluorescent antibodies. […]

`CNC(=O)c1ccccc1Sc1ccc2c(/C=C/c3ccccn3)n[nH]c2c1` [Compound 1, Axitinib]: the “kinase activities (phosphorylation degree of substrate peptides) compared to DMSO” value is on record as “strong kinase inhibition”.
